{"source": "paper PMC11442470", "molecules": {"B1": {"name": "PDZ domain containing 8 (PDZD8), endogenous in MEFs (protein, UniProt B9EJ80 1-1147)", "chain": "MGLLLLILASAVLGSFLTLLAQFLLLYRRQPEPRADEAARAGDGFRYLKPVPGLPLREYLYGGGAEELAACSSEAGASSTPTPDSPAPPTLETCYFLNATILFLFRELRDTALARRWVTKKIKVEFEELLQTKTAGRLLEGLSLRDVFLGDTVPFIKTIRLVRPVVASGTGEPDDPDGDALPATCPEELAFEAEVEYNGGFHLAIDVDLVFGKSAYLFVKLSRVVGRLRFVLTRVPFTHWFFSFVEDPLIDFEVRSQFEGRPMPQLTSIIVNQLKKIIKRKHTLPSYKIRFKPFFPYQALQGFEEDEELIHIQQWALTEGRLKVTLLECSRLFIFGSYDRETNVHCTLELSSGVWEEKQRSSIKTVELIKGNLQSVGLTLRLVQSTDGYAGHVIIETVAPNSPAAMADLQRGDRLIAIGGVKITSTLQVLKLIKQAGDRVLVYYQRPAGQSSQDSLGQLEESFLSSSCQAAYEEDAAGLSADTENRDLDSEFEDLASDVRVQTELKEETQPLSHSPKRTPTTLSIKPLGAISPVLNRKLISGIHPPPQKLPSKEGNKPSTLKTSETTEAAQVSKPQGPTFKPPVPPRPQGRVPLPPTDTSAQADPEAPEKPDKVLLPPPPADKPAEKQVKSVDQGEDVAAGKQSSAKQEGVKDLPSESSAPTKDSSDDPQMWESSEVLYRNKVGKWSRTRASCVFDIEACHRYLNIALWCRDPFKLGGLICLGHVSLKLEEVALGCLATSNMEYLTKFRLEPPTPKAMVTRTALRNLSMQKGFNDKFCFGDITIHFKYLKEGEPDHHIVPNVEKEKELHLVEEVSTLPKEEHFVGQMSLSENKHSFQDTQFQNPTWCDYCKKKVWTKAASQCMFCAYVCHKKCQEKCLAETPLCGATERRIDRTLKNLRLEGQDPLLGLPPRVEIEANKSVNKTTGLTRHIINTSSRLLNLRQVSKTRLSEPGTDLVEPSPKHTPNTSDNEGSDTEVCGSNSPSKRGNSAGIKLMRKEGGLDDSVFIAVKEIGRDLYRGLPTEERIQKLEFMLDKLQNEIDQELEHNNSLVREEKETNDTRKKSVLSAALAKSGERLQALTLLMIHYRAGIEDIETLENLSLDQHSKKMNKYADDTEEDLDSEISQLIDSQPFSNISDDLFGPSESV"}, "B2": {"name": "HA-tagged PDZD8, stably expressed in MEFs (protein, UniProt Q8NEN9 1-1154)", "chain": "MGLLLMILASAVLGSFLTLLAQFFLLYRRQPEPPADEAARAGEGFRYIKPVPGLLLREYLYGGGRDEEPSGAAPEGGATPTAAPETPAPPTRETCYFLNATILFLFRELRDTALTRRWVTKKIKVEFEELLQTKTAGRLLEGLSLRDVFLGETVPFIKTIRLVRPVVPSATGEPDGPEGEALPAACPEELAFEAEVEYNGGFHLAIDVDLVFGKSAYLFVKLSRVVGRLRLVFTRVPFTHWFFSFVEDPLIDFEVRSQFEGRPMPQLTSIIVNQLKKIIKRKHTLPNYKIRFKPFFPYQTLQGFEEDEEHIHIQQWALTEGRLKVTLLECSRLLIFGSYDREANVHCTLELSSSVWEEKQRSSIKTVELIKGNLQSVGLTLRLVQSTDGYAGHVIIETVAPNSPAAIADLQRGDRLIAIGGVKITSTLQVLKLIKQAGDRVLVYYERPVGQSNQGAVLQDNFGQLEENFLSSSCQSGYEEEAAGLTVDTESRELDSEFEDLASDVRAQNEFKDEAQSLSHSPKRVPTTLSIKPLGAISPVLNRKLAVGSHPLPPKIQSKDGNKPPPLKTSEITDPAQVSKPTQGSAFKPPVPPRPQAKVPLPSADAPNQAEPDVLVEKPEKVVPPPLVDKSAEKQAKNVDAIDDAAAPKQFLAKQEVAKDVTSETSCPTKDSSDDRQTWESSEILYRNKLGKWTRTRASCLFDIEACHRYLNIALWCRDPFKLGGLICLGHVSLKLEDVALGCLATSNTEYLSKLRLEAPSPKAIVTRTALRNLSMQKGFNDKFCYGDITIHFKYLKEGESDHHVVTNVEKEKEPHLVEEVSVLPKEEQFVGQMGLTENKHSFQDTQFQNPTWCDYCKKKVWTKAASQCMFCAYVCHKKCQEKCLAETSVCGATDRRIDRTLKNLRLEGQETLLGLPPRVDAEASKSVNKTTGLTRHIINTSSRLLNLRQVSKTRLSEPGTDLVEPSPKHTPNTSDNEGSDTEVCGPNSPSKRGNSTGIKLVRKEGGLDDSVFIAVKEIGRDLYRGLPTEERIQKLEFMLDKLQNEIDQELEHNNSLVREEKETTDTRKKSLLSAALAKSGERLQALTLLMIHYRAGIEDIETLESLSLDQHSKKISKYTDDTEEDLDNEISQLIDSQPFSSISDDLFGPSESV"}, "B3": {"name": "GFP-PDZD8, stably expressed in MEFs (protein, UniProt Q8NEN9 1-1154)", "chain": "B2 chain"}, "B4": {"name": "HA-tagged PDZD8-T527A, stably expressed in MEFs (protein, UniProt Q8NEN9 1-1154)", "chain": "B2 chain with T527A"}, "B5": {"name": "GFP-PDZD8-T527A, stably expressed in MEFs (protein, UniProt Q8NEN9 1-1154)", "chain": "B2 chain with T527A"}}, "key": {"[1]": {"biological_target": "T1, GST-tagged recombinant PDZD8 phosphorylated by AMPK in vitro (human) (UniProt Q8NEN9)", "T1 sequence (chain, phosphothreonine at 527 (phosphorylated by AMPK in vitro))": "B2 chain", "test": "pull-down; recombinant His-tagged KGA or GAC mixed with recombinant GST-tagged PDZD8 or PDZD8-T527A that was pre-incubated with AMPK pre-phosphorylated with CaMKK2; GST tag pulled down, immunoblotting; both purified"}, "[2]": {"biological_target": "T2, GST-tagged recombinant PDZD8, not phosphorylated (human) (UniProt Q8NEN9)", "T2 sequence": "B2 chain", "test": "pull-down; recombinant His-tagged KGA or GAC mixed with recombinant GST-tagged PDZD8 or PDZD8-T527A that was pre-incubated with AMPK pre-phosphorylated with CaMKK2; GST tag pulled down, immunoblotting; both purified"}, "[3]": {"biological_target": "T3, GST-tagged recombinant PDZD8-T527A, pre-incubated with AMPK (human) (UniProt Q8NEN9)", "T3 sequence": "B2 chain with T527A", "test": "pull-down; recombinant His-tagged KGA or GAC mixed with recombinant GST-tagged PDZD8 or PDZD8-T527A that was pre-incubated with AMPK pre-phosphorylated with CaMKK2; GST tag pulled down, immunoblotting; both purified"}, "[4]": {"biological_target": "T4, FLAG-tagged full-length PDZD8, stably expressed in MEFs (human) (UniProt Q8NEN9)", "T4 sequence": "B2 chain", "test": "co-IP; MEFs stably expressing FLAG-tagged PDZD8-FL or PDZD8-CT, glucose-starved for 2 h or not, immunoprecipitation with anti-FLAG, blot for co-precipitated endogenous GLS1"}, "[5]": {"biological_target": "glutaminase 1 (GLS1; both KGA and GAC), endogenous in MEFs (mouse (endogenous in MEFs)) (UniProt D3Z7P3)", "test": "co-IP; endogenous GLS1 (KGA and GAC) immunoprecipitated from MEF lysates in DDM/CHS lysis buffer (20 mM HEPES pH 7.4, 50 mM NaCl, 10 mM MgCl2, 0.5% DDM, 0.1% CHS), blot for co-precipitated PDZD8; cells unstarved or glucose-starved for 2 h; WT, AMPKα-/- and PDZD8-/- MEFs, the last with WT PDZD8 or PDZD8-T527A re-introduced"}, "[6]": {"biological_target": "glutaminase 1 (GLS1; both KGA and GAC), endogenous in MEFs (mouse (endogenous in MEFs)) (UniProt D3Z7P3)", "test": "proximity ligation; Duolink PLA in fixed MEFs expressing HA-tagged PDZD8 or its mutant, mouse anti-HA and rabbit anti-GLS1; cells unstarved or glucose-starved for 2 h; WT, AMPKα-/- and PDZD8-/- MEFs"}, "[7]": {"biological_target": "GLS1 (KGA)-mCherry, stably expressed in MEFs (UniProt O94925)", "test": "FRET or BRET; FRET-FLIM in living MEFs stably expressing GFP-PDZD8 (donor) and GLS1 (KGA)-mCherry; fluorescence lifetime of GFP, 37 °C; cells unstarved or glucose-starved for 2 h"}}, "note": "Substitutions are numbered along the chain they refer to. Names and notes keep the numbering of the source. No constants are given. Whether binding was seen depends on the method and setting. For some assays here: Binding seen in cells or lysates may run through a third protein. Some binding calls cover weakened binding; strength is not graded here. Sequences can lack the tags named with a protein."}
{"molecule": "recombinant His-tagged GAC isozyme of GLS1 (from UniProt O94925-3 71-598) (enzyme)", "values": [{"measurement": "binding", "setting": "[1]", "result": "binds"}, {"measurement": "binding", "setting": "[2]", "result": "binds"}, {"measurement": "binding", "setting": "[3]", "result": "binds"}]}
{"molecule": "glutaminase 1 (GLS1; both KGA and GAC), endogenous in MEFs (from UniProt D3Z7P3 55-674) (enzyme)", "values": [{"measurement": "binding", "setting": "[4]", "result": "binds"}]}
{"molecule": "recombinant His-tagged KGA isozyme of GLS1 (from UniProt O94925 55-669) (enzyme)", "values": [{"measurement": "binding", "setting": "[1]", "result": "binds"}, {"measurement": "binding", "setting": "[2]", "result": "binds"}, {"measurement": "binding", "setting": "[3]", "result": "binds"}]}
{"molecule": "B1", "values": [{"measurement": "binding", "setting": "[5]", "result": "binds"}]}
{"molecule": "B2", "values": [{"measurement": "binding", "setting": "[6]", "result": "binds"}, {"measurement": "binding", "setting": "[5]", "result": "binds"}]}
{"molecule": "B3", "values": [{"measurement": "binding", "setting": "[7]", "result": "binds"}]}
{"molecule": "B4", "values": [{"measurement": "binding", "setting": "[6]", "result": "binds"}, {"measurement": "binding", "setting": "[5]", "result": "binds"}]}
{"molecule": "B5", "values": [{"measurement": "binding", "setting": "[7]", "result": "binds"}]}
